# Data as given in PubChem BioAssay AID686938 (Drosophila RNAi Screening Center, 2013).
# Purpose: 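Looking for CRAC channel components and the factors controlling them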 (primary screen)
# Cell system: Drosophila S2R+ cells
# Reagents: long dsRNA against Drosophila genes, about 0.25 µg dsRNA per well, roughly 10,000 cells
# Duration: 5 days of knock-down before the calcium assay
# Challenge: thapsigargin (SERCA pump blocker) to empty calcium stores; entry signal taken 4 min after adding it
# Detection: 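Per-well fluo-4 fluorescence in two replicates, unnormalised, measured in resting cells and 4 min after store depletion by the SERCA blocker thapsigargin; ratio of the two present in few wells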
# Direction: calcium entry signal: higher = stronger calcium signal after store depletion; entry to resting ratio: higher = more calcium entry relative to resting level; resting calcium signal: higher = higher resting calcium signal
# Hit rule: 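Hit if the duplicate-averaged plate z-score for entry over resting signal is under −3; wells with weak total dye signal (Fmax z < −2) or more than 5 off-targets removed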
# Calls: active = strongly reduced calcium entry; inactive = no strong reduction
# The screen tested about 23,000 reagents; shown is a random part of those with a known target gene and a result. Over the whole deposit, 75 (0.33%) are marked active. 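Raw plate signals without normalisation; calls rest on plate z-scores that were not deposited; ratio present for only 364 wells.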 Not given: the dose of the treatment.
The first 2 entries, to show the layout:
"calcium entry signal, replicate 1 (fluorescence units)","calcium entry signal, replicate 2 (fluorescence units)",entry to resting ratio,"resting calcium signal, replicate 1 (fluorescence units)","resting calcium signal, replicate 2 (fluorescence units)",activity call,gene knocked down,dsRNA
5.44e7,3.44e7,,5.71e7,1.83e7,inactive,bon,DRSC16914
2.33e7,2.40e7,,1.26e7,1.13e7,inactive,CG32625,DRSC18994

Main list, repeating the preview:
"calcium entry signal, replicate 1 (fluorescence units)","calcium entry signal, replicate 2 (fluorescence units)",entry to resting ratio,"resting calcium signal, replicate 1 (fluorescence units)","resting calcium signal, replicate 2 (fluorescence units)",activity call,gene knocked down,dsRNA
5.44e7,3.44e7,,5.71e7,1.83e7,inactive,bon,DRSC16914
2.33e7,2.40e7,,1.26e7,1.13e7,inactive,CG32625,DRSC18994
4.28e7,4.07e7,,2.11e7,1.89e7,inactive,CG11555,DRSC00315
3.30e7,5.07e7,,1.68e7,9.19e7,inactive,Mst89B,DRSC16748
6.79e7,5.10e7,,3.45e7,2.35e7,inactive,CNMaR,DRSC08992
2.77e7,3.81e7,,1.41e7,1.62e7,inactive,CNMaR,DRSC10224
4.44e7,,,2.53e7,,inactive,Vps53,DRSC00595
3.27e7,4.20e7,,1.47e7,1.94e7,inactive,Gasp,DRSC12349
3.46e7,4.56e7,,1.71e7,1.69e7,inactive,Ilp8,DRSC10076
2.88e7,3.81e7,,1.45e7,1.67e7,inactive,CG34338,DRSC17535
3.47e7,3.71e7,,1.68e7,1.78e7,inactive,red,DRSC14477
4.04e7,3.74e7,,2.00e7,1.71e7,inactive,red,DRSC23177
4.46e7,4.02e7,,2.03e7,1.97e7,inactive,CG13933,DRSC08402
5.34e7,4.07e7,,2.60e7,1.81e7,inactive,Lsd-1,DRSC14236
4.91e7,5.79e7,2,2.48e7,2.25e7,inactive,TRAM,DRSC18178
5.29e7,5.73e7,2,2.64e7,2.27e7,inactive,TRAM,DRSC18651
3.53e7,4.16e7,,2.12e7,2.00e7,inactive,CG31327,DRSC13019
2.46e7,2.16e7,,1.61e7,1.51e7,inactive,Cdc5,DRSC08577
2.06e7,6.29e7,,1.18e7,2.67e7,inactive,CG32074,DRSC22246
2.41e7,3.66e7,,1.21e7,1.59e7,inactive,fend,DRSC17601
2.03e7,3.90e7,,1.15e7,1.80e7,inactive,fend,DRSC17867
3.89e7,5.00e7,,1.88e7,2.10e7,inactive,janA,DRSC16972
3.32e7,2.96e7,,1.69e7,1.51e7,inactive,CG2577,DRSC19863
4.03e7,4.22e7,,2.02e7,2.02e7,inactive,CG2577,DRSC23309
